# Measurements published in the supplement of paper PMC6279402.
# ± gives the standard deviation of the averaged measurements. Only a part is listed here, and it is no random draw.
# System: A549
# Assay: relative viability (normalised to negative control = 1, bortezomib = 0) (fraction); higher = less cytotoxic
# Conditions: inflammatory serum-free RHB-A with cytokines + LPS, 5 d + 24 h CellTiter-Blue
# Method: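 A549 KRAS-mutant NSCLC cells, pre-treated 5 µM GSK126 or vehicle (DMSO), were seeded at 250 cells/well in 384-well plates in serum-free RHB-A medium with inflammatory cytokines/LPS and treated with Selleck kinase inhibitor and NCI oncology compounds at 30 or 300 nM in triplicate, refreshed at 48 h. Viability was read by CellTiter-Blue after 5 d plus 24 h and normalised per plate with cellHTS2 (mean of bortezomib positive control = 0, mean of negative control = 1).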
structure (smiles),measurement,setting,value
Cc1ccccc1-n1c(Cn2nc(-c3cccc(O)c3)c3c(N)ncnc32)nc2cccc(C)c2c1=O,relative viability,"compound 30 nM, GSK126 pretreatment: 5 uM GSK126",0.914 ± 0.15
same,relative viability,"compound 30 nM, GSK126 pretreatment: none (vehicle)",0.937 ± 0.14
same,relative viability,"compound 300 nM, GSK126 pretreatment: 5 uM GSK126",0.96 ± 0.044
same,relative viability,"compound 300 nM, GSK126 pretreatment: none (vehicle)",0.929 ± 0.056
